Reference: PubChem BioAssay AID1259308 (NCATS, 2017)
In all, the deposit lists about 59,000 reagents; this is a part drawn at random. In the full data, about 1,510 (2.6%) were called active. 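Calls use total luciferase alone and ignore viability, so some active siRNAs may act by altering cell number.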 Reagents against one gene are numbered here.

Purpose: 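Genes whose loss raises luciferase production in HEK293 cells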 (primary screen)
Cell system: human HEK293 embryonic kidney cells stably expressing firefly luciferase (HEK-CMV-Luc2-Hygro)
Knock-down reagent: single siRNA against human genes, 0.8 pmol siRNA per well
Timing: 72 h
Measurement: 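Reporter luminescence and viable-cell signal on separate replicate plates, given as percent of non-targeting control and median/MAD z-scores, plus per-cell luciferase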
Scale: total luciferase, z-score and total luciferase, % of control: higher = more reporter protein produced; luciferase per cell, z-score: higher = more reporter output per viable cell; viable cells, % of control: higher = more viable cells
Rule for the call: 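Active when the median/MAD z-score for overall luciferase is greater than 3; a gene was taken forward for validation with new siRNAs if at least two of its three siRNAs passed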
Calls: active = raised luciferase; inactive = no rise

The opening 3 records, to show the layout:
| gene symbol | reagent no. | total luciferase, z-score | total luciferase, % of control | luciferase per cell, z-score | viable cells, % of control | outcome |
| --- | --- | --- | --- | --- | --- | --- |
| CGA (glycoprotein hormones, alpha polypeptide) | 1 | -0.188 | 78.1 | -0.0971 | 89.6 | inactive |
| CGA (glycoprotein hormones, alpha polypeptide) | 2 | -0.251 | 76.9 | 0.0212 | 85.4 | inactive |
| CGA (glycoprotein hormones, alpha polypeptide) | 3 | -0.0882 | 80.1 | -0.602 | 105 | inactive |

Results, repeating the preview:
| gene symbol | reagent no. | total luciferase, z-score | total luciferase, % of control | luciferase per cell, z-score | viable cells, % of control | outcome |
| --- | --- | --- | --- | --- | --- | --- |
| CGA (glycoprotein hormones, alpha polypeptide) | 1 | -0.188 | 78.1 | -0.0971 | 89.6 | inactive |
| CGA (glycoprotein hormones, alpha polypeptide) | 2 | -0.251 | 76.9 | 0.0212 | 85.4 | inactive |
| CGA (glycoprotein hormones, alpha polypeptide) | 3 | -0.0882 | 80.1 | -0.602 | 105 | inactive |
| PALMD (palmdelphin) | 1 | 0.0473 | 82.8 | 0.97 | 71.7 | inactive |
| PALMD (palmdelphin) | 2 | -2.44 | 33.4 | -2.09 | 64.7 | inactive |
| PALMD (palmdelphin) | 3 | 0.21 | 86.1 | -0.0364 | 97.1 | inactive |
| FRY (FRY microtubule binding protein) | 1 | 0.808 | 98 | 0.122 | 106 | inactive |
| FRY (FRY microtubule binding protein) | 2 | 0.423 | 90.3 | 0.759 | 82.6 | inactive |
| FRY (FRY microtubule binding protein) | 3 | -1.06 | 60.8 | -0.949 | 87.2 | inactive |
| HDGFL3 (HDGF like 3) | 1 | -0.0208 | 81.5 | -0.223 | 96.5 | inactive |
| HDGFL3 (HDGF like 3) | 2 | -0.81 | 65.8 | -0.231 | 78.1 | inactive |
| HDGFL3 (HDGF like 3) | 3 | 1.78 | 117 | 0.713 | 109 | inactive |
| TMED3 (transmembrane p24 trafficking protein 3) | 1 | -1.26 | 56.7 | -0.886 | 80.1 | inactive |
| TMED3 (transmembrane p24 trafficking protein 3) | 2 | 0.106 | 84 | -0.111 | 96.6 | inactive |
| TMED3 (transmembrane p24 trafficking protein 3) | 3 | 2.13 | 124 | 1.49 | 93.7 | inactive |
| ZNF687 (zinc finger protein 687) | 1 | -0.415 | 73.6 | -0.259 | 88.1 | inactive |
| ZNF687 (zinc finger protein 687) | 2 | -1.56 | 50.8 | 0.0487 | 56.1 | inactive |
| ZNF687 (zinc finger protein 687) | 3 | -0.677 | 68.4 | -0.775 | 93.8 | inactive |
| CUZD1 (CUB and zona pellucida like domains 1) | 1 | -2.36 | 35 | -1.73 | 61.7 | inactive |
| CUZD1 (CUB and zona pellucida like domains 1) | 2 | -0.683 | 68.3 | 0.533 | 66.3 | inactive |
| CUZD1 (CUB and zona pellucida like domains 1) | 3 | 0.305 | 88 | 0.392 | 88.7 | inactive |
| SCNN1A (sodium channel epithelial 1 subunit alpha) | 1 | -0.325 | 75.4 | -0.37 | 92.9 | inactive |
| SCNN1A (sodium channel epithelial 1 subunit alpha) | 2 | -0.984 | 62.3 | -1.06 | 92.1 | inactive |
| SCNN1A (sodium channel epithelial 1 subunit alpha) | 3 | 2.15 | 125 | 1.65 | 90.3 | inactive |
